Paper PMC8472677
Results are given in words; binding and its absence hold for the method and conditions named. Binding seen in cells or lysates may run through a third protein. Some entries that bind do so weakly or less than the wild type.

Amino acid sequences for entries named in this document (tags omitted).
UniProt Q15796: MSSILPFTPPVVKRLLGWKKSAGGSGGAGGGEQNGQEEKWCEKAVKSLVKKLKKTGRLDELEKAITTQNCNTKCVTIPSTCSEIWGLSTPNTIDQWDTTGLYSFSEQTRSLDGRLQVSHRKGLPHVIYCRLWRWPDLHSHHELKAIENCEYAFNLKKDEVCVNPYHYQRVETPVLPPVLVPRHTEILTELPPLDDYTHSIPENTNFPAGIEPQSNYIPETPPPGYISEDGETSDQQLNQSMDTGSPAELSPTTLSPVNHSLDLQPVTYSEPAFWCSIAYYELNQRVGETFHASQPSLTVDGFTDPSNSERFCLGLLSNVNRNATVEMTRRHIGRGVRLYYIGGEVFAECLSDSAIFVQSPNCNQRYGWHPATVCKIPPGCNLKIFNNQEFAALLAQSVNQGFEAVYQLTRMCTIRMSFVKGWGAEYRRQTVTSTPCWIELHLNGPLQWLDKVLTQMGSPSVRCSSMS
UniProt Q92831: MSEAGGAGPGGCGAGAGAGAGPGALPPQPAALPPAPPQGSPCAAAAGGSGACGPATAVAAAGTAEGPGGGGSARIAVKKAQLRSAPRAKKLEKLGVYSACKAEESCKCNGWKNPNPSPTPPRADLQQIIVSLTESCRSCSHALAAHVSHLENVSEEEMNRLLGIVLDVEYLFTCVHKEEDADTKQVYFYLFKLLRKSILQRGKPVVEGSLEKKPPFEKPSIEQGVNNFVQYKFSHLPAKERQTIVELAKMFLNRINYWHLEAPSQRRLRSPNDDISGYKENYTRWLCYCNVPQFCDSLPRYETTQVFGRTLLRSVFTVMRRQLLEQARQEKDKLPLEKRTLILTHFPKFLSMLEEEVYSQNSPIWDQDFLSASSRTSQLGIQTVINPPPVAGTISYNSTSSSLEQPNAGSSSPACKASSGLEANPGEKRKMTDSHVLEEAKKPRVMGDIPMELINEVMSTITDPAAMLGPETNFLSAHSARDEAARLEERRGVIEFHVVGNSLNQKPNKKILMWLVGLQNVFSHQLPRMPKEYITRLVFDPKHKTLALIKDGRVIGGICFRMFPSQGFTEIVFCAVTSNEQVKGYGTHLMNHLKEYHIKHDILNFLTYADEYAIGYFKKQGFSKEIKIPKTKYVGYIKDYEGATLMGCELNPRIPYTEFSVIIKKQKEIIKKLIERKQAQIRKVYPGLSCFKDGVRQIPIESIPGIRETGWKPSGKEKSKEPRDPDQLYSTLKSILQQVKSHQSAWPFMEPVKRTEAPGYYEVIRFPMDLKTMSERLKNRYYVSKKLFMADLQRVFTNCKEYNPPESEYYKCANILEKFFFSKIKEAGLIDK

Target: mothers against decapentaplegic homolog 2 (SMAD2) (human (endogenous in NHCFs)) (UniProt Q15796)
Experiment: co-IP; endogenous SMAD2 immunoprecipitated from 1-2 mg precleared NHCF lysate (RIPA buffer), protein A/G PLUS-Agarose, 4 °C, blot for PCAF; cells treated with TGF-β1; corresponding IgG as negative control

## p300/CBP-associated factor (PCAF) (from UniProt Q92831 1-832)
  binding: binds
